Binding data for 2 molecules are collected here from patent publication US20240092922A1.

Chains of the proteins cited; added tags and fusions are not shown. Lines headed by an entry give the natural chain unless they say otherwise; changes in a name come on top.
UniProt Q07011: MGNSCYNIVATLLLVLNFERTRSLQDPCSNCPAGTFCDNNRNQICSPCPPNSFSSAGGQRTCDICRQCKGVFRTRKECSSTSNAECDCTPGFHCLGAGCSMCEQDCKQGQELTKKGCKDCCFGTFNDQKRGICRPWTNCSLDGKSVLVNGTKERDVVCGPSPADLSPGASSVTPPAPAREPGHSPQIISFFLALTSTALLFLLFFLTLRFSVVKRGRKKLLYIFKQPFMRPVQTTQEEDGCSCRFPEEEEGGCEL

These are yes or no findings as the source states them, for the method shown. Some results given as binding are weak or reduced against the parent protein; the word gives no strength.

In experiment [1] the target is Histidine-tagged human 4-1BB protein (h4-1BB-His) (human) (UniProt Q07011). Description: SPR (Biacore T200), antibody captured on a Protein A chip, h4-1BB-His injected at 800, 200, 50, 12.5 and 3.125 nM. A general note: In SPR one partner is held on a chip, and binding of the other changes the refractive index at the surface.
For experiment [2] the target is unchanged. Description: SPR (Biacore T200), antibody captured on a Protein A chip, human 4-1BB (h4-1BB-His, same method as Example 5) injected at 100, 25, 6.25, 1.5625 and 0.390625 nM.

B1: 16-1C4-mHvKv-IgG4 (antibody, V domains shown)
VH: QGQMQQSGAELVKPGASVKLSCKTSGFTFSSSYINWLKQKPGQSLEWIAWIFAGTGGTYYNQKFTGKAQLTVDTSSGTAYMQFSSLTTEDSAIYYCARHSPRATLFDFWGQGTTLTVSS
VL: QIVLSQSPAILSASPGEKVTMTCRASSSVNHMHWYQQRTGFSPKAWIYATSNLASGVPARFSGSGSGTSYSLTISRVEAEDAATYYCQQWSSNPYTFGGGTKLEIK
On to B1, for which the binding result in experiment [1] was “binds”.

B2: 29-6A5-mHvKv-IgG2 (antibody, V domains shown)
VH: QVQLQQPGAELVRPGASVKLSCKASGYTFSSYWINWVKQRPGQGLEWIGNIYPSDSYTNYNQKFKDKATLTVDKSSSTAYMQLSSPTSDDSAVYYCTRTWEFYYDSVFDYWGQGTTLTVSS
VL: DIKMTQSPSSMYASLGERVTITCKASQDINSYLSWFQQKPGKSPKTLIYRANRLVDGVPSRFSGSGSGQDYSLTISSLEYEDMGIYYCLQYDELPPTFGGGTKLEIK
With B2, the binding entry in experiment [2] was “binds”.
